Test results: paper PMC9958362
These are yes or no findings as the source states them, for the method shown. Binding seen in cells or lysates may run through a third protein. Binding can be weak; no strength is given.

Key:
[1] = target: T1, XPC (endogenous, HEK293T) (human (endogenous in HEK293T)) (UniProt Q01831); assay: co-IP; HEK293T whole cell extract overexpressing GFP-MAP7 constructs or mCherry-MAP7D1 constructs, with the endogenous DDR protein; 2 h, 4 °C, 150 mM NaCl, 1% Triton X-100; in some panels cells treated with nocodazole (0.1 ng/mL), paclitaxel (0-10 μM), 10 Gy γ-irradiation or 10 J/m^2 UVC; western blot
T1 sequence: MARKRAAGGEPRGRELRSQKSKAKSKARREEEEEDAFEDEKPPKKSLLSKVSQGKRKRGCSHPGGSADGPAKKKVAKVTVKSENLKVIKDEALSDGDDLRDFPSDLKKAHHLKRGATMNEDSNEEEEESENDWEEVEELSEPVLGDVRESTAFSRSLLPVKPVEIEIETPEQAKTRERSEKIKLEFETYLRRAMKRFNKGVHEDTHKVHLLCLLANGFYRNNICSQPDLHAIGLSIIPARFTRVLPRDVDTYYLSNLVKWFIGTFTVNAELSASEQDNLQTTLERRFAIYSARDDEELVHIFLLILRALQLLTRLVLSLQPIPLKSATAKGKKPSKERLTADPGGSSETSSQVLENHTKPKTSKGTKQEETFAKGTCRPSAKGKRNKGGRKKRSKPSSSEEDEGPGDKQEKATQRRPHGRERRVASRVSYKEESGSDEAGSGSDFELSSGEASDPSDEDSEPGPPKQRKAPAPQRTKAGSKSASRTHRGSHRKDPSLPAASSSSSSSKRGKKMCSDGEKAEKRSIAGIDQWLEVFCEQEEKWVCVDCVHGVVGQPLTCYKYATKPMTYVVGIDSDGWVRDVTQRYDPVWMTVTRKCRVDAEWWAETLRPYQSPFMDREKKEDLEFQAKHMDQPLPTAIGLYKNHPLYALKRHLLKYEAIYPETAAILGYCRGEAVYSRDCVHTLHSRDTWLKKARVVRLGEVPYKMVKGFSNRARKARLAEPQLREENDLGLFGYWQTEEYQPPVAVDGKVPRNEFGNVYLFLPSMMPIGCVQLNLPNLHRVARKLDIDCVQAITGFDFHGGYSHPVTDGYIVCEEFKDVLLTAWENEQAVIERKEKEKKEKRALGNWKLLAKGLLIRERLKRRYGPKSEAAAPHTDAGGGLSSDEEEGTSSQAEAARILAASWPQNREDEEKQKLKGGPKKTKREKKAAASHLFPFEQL

[2] = target: T2, pRAD50 peptide (phosphorylated RAD50 peptide, pThr690); assay: pull-down; biotinylated RAD50 peptides (nonP and P); pull-down from HEK293T whole cell extract overexpressing GFP-MAP7; western blot; only the target purified
T2 sequence (peptide, Biotin-eahx on the N-terminus; phosphothreonine (pT, Thr690); C-terminal amide): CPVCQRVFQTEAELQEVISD

binding [1] | binding [2] | Substance
no binding | – | GFP-tagged MAP7 aa290-730 (domain or fragment)
binds | – | GFP-tagged MAP7 N-terminal fragment (aa1-152) (domain or fragment)
binds | – | GFP-tagged MAP7 aa1-290 (domain or fragment)
binds | binds | GFP-tagged full-length MAP7
